Experimental data reported in PMC11388069.

Chains of the proteins cited; added tags and fusions are not shown.
UniProt P19474: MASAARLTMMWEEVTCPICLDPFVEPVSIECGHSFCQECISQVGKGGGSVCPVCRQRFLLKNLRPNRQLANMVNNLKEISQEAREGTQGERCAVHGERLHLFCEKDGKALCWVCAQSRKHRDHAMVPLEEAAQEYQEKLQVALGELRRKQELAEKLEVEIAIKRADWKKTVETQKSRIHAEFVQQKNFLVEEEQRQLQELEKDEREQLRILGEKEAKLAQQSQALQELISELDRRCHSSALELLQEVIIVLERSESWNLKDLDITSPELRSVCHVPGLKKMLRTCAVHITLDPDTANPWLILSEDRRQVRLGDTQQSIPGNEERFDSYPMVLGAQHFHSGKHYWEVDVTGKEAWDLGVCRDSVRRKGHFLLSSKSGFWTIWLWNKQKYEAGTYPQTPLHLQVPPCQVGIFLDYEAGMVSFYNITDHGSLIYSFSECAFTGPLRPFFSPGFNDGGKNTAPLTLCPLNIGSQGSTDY

Biological target: T1, MGAT3 (N-acetylglucosaminyltransferase MGAT3) (human (endogenous in MDA-MB-231)) (UniProt Q09327)
T1 sequence: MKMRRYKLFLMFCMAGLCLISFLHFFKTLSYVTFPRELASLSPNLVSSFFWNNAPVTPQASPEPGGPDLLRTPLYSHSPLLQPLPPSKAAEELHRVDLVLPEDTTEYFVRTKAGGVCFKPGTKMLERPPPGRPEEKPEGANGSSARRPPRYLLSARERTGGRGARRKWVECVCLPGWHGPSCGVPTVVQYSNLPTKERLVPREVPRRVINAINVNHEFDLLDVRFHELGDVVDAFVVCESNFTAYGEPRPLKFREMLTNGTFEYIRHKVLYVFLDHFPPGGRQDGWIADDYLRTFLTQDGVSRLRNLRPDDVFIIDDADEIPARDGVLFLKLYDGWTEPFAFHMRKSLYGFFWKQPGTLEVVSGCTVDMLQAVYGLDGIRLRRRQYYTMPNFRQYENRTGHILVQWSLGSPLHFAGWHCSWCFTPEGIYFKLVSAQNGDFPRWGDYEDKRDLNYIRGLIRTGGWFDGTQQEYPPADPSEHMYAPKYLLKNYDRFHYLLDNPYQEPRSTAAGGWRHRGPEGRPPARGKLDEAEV
Test: affinity purification with mass spectrometry; Co-IP-MS of MGAT3 from lysates of MDA-MB-231 cells treated with/without DOX; immunoprecipitates separated by SDS-PAGE, in-gel digestion, LC-MS/MS

binding: binds
Substance: Trim21 (from UniProt P19474 1-475) (enzyme)

No constants are given. Whether binding was seen depends on the method and setting. In cells and extracts the contact can be indirect. These calls come from enrichment with a bait or labelling near it, and not all partners need be listed. Tags and fused reporters may be left off the sequences shown.
